Results as given in PMC10893103, “Cyclodextrin-Enabled Enantioselective Complexation Study of Cathinone Analogs” (Molecules, 2024).

What was measured:
[1] = Chiral CE enantioseparation screening, pH 4.5
[2] = Chiral CE enantioseparation screening, pH 4.5; remark: listed apart in the source
[3] = Chiral CE enantioseparation screening, pH 4.5; remark: listed apart in the source
[4] = Chiral CE enantioseparation screening, pH 4.5; remark: listed apart in the source
[5] = Chiral CE enantioseparation screening, pH 4.5; remark: listed apart in the source
[6] = 20 mM acetate buffer pH 4.5, CD 1 mM
[7] = 20 mM acetate buffer pH 4.5, CD 5 mM
[8] = 20 mM acetate buffer pH 4.5, CD 10 mM
[9] = 20 mM acetate buffer pH 4.5, CD 1-5 mM
[10] = 20 mM acetate buffer pH 4.5, CD 1-5-10 mM

| Molecule | Enantioseparation (Rs) of 4-MEC [1, 6] | Enantioseparation (Rs) of 4-MEC [1, 7] | Enantioseparation (Rs) of 4-MEC [1, 8] | Enantioseparation (Rs) of Flephedrone [2, 6] | Enantioseparation (Rs) of Flephedrone [2, 7] | Enantioseparation (Rs) of Flephedrone [2, 8] | Enantioseparation (Rs) of Mephedrone [3, 6] | Enantioseparation (Rs) of Mephedrone [3, 7] | Enantioseparation (Rs) of Mephedrone [3, 8] | Enantioseparation (Rs) of Butylone [4, 7] | Enantioseparation (Rs) of Butylone [4, 8] | Enantioseparation (Rs) of MDPV [5, 6] | Enantioseparation (Rs) of MDPV [5, 7] | Enantioseparation (Rs) of Butylone [4, 6] | Enantioseparation (Rs) of MDPV [5, 8] | Enantioseparation (Rs) of 4-MEC [1, 10] | Enantioseparation (Rs) of Flephedrone [2, 10] | Enantioseparation (Rs) of Mephedrone [3, 10] | Enantioseparation (Rs) of Butylone [4, 10] | Enantioseparation (Rs) of MDPV [5, 10] | further results |
| --- | --- | --- | --- | --- | --- | --- | --- | --- | --- | --- | --- | --- | --- | --- | --- | --- | --- | --- | --- | --- | --- |
| O=S(=O)(O)CCCCOC[C@H]1O[C@@H]2O[C@H]3[C@H](O)[C@@H](O)[C@@H](O[C@H]4[C@H](O)[C@@H](O)[C@@H](O[C@H]5[C@H](O)[C@@H](O)[C@@H](O[C@H]6[C@H](O)[C@@H](O)[C@@H](O[C@H]7[C@H](O)[C@@H](O)[C@@H](O[C@H]8[C@H](O)[C@@H](O)[C@@H](O[C@H]1[C@H](O)[C@H]2O)O[C@@H]8COCCCCS(=O)(=O)O)O[C@@H]7COCCCCS(=O)(=O)O)O[C@@H]6COCCCCS(=O)(=O)O)O[C@@H]5COCCCCS(=O)(=O)O)O[C@@H]4COCCCCS(=O)(=O)O)O[C@@H]3COCCCCS(=O)(=O)O [6-(SB)7-β-CD, heptakis-(6-O-sulfobutyl)-β-CD] | 0 | 0.7 | 0.6 | 0 | 0 | 0 | 0 | 0.2 | 0.2 | 0.4 | 0.6 | 1.8 | 2.6 |  |  |  |  |  |  |  | Enantioseparation (Rs) of Flephedrone ([2]; 20 mM acetate buffer pH 4.5, CD 1 mM, listed as 6-(SB)7- β-CD): 0 0 0; Enantioseparation (Rs) of Flephedrone ([2]; 20 mM acetate buffer pH 4.5, CD 5 mM, listed as 6-(SB)7- β-CD): 0 0 0; Enantioseparation (Rs) of Flephedrone ([2]; 20 mM acetate buffer pH 4.5, CD 10 mM, listed as 6-(SB)7- β-CD): 0 0 0 |
| CO[C@@H]1[C@@H](OC)[C@H]2O[C@H]3[C@H](OC)[C@@H](OC)[C@@H](O[C@H]4[C@H](OC)[C@@H](OC)[C@@H](O[C@H]5[C@H](OC)[C@@H](OC)[C@@H](O[C@H]6[C@H](OC)[C@@H](OC)[C@@H](O[C@H]7[C@H](OC)[C@@H](OC)[C@@H](O[C@H]8[C@H](OC)[C@@H](OC)[C@@H](O[C@@H]1[C@@H](COS(=O)(=O)O)O2)O[C@@H]8COS(=O)(=O)O)O[C@@H]7COS(=O)(=O)O)O[C@@H]6COS(=O)(=O)O)O[C@@H]5COS(=O)(=O)O)O[C@@H]4COS(=O)(=O)O)O[C@@H]3COS(=O)(=O)O [HDMS-β-CD, heptakis-(2,3-O-dimethyl, 6-O-sulfo)-β-CD] | 0.3 | 1.5 | 2.1 | 0.8 | 1.7 | 2.6 | 0.2 | 1.6 | 2.3 | 2.7 | 4.0 | 0.5 | 1.9 | 0.8 | 2.9 |  |  |  |  |  |  |
| OC[C@H]1O[C@@H]2O[C@H]3[C@H](O)[C@@H](O)[C@@H](O[C@H]4[C@H](O)[C@@H](O)[C@@H](O[C@H]5[C@H](O)[C@@H](O)[C@@H](O[C@H]6[C@H](O)[C@@H](O)[C@@H](O[C@H]7[C@H](O)[C@@H](O)[C@@H](O[C@H]8[C@H](O)[C@@H](O)[C@@H](O[C@H]9[C@H](O)[C@@H](O)[C@@H](O[C@H]1[C@H](O)[C@H]2O)O[C@@H]9CO)O[C@@H]8CO)O[C@@H]7CO)O[C@@H]6CO)O[C@@H]5CO)O[C@@H]4CO)O[C@@H]3CO [γ-CD] |  |  |  |  |  |  |  |  |  |  |  |  |  |  |  |  |  |  |  |  | Enantioseparation (Rs) of 4-MEC [1, 9]: 0; Enantioseparation (Rs) of Flephedrone [2, 9]: 0; Enantioseparation (Rs) of Mephedrone [3, 9]: 0; Enantioseparation (Rs) of Butylone [4, 9]: 0; Enantioseparation (Rs) of MDPV [5, 9]: 0 |
| hydroxypropylated-β-CD [HP-β-CD] | 0 | 0.3 | 0.3 | 0 | 0 | 0 | 0 | 0.3 | 0.3 | 0 | 0 | 0 | 0.5 | 0 | 0.4 |  |  |  |  |  |  |
| hydroxypropylated-α-CD [HP-α-CD] |  |  | 0.6 |  |  | 0 |  |  | 0.3 |  | 0 |  |  |  | 0.3 |  |  |  |  |  | Enantioseparation (Rs) of 4-MEC [1, 9]: 0; Enantioseparation (Rs) of Flephedrone [2, 9]: 0; Enantioseparation (Rs) of Mephedrone [3, 9]: 0; Enantioseparation (Rs) of Butylone [4, 9]: 0; Enantioseparation (Rs) of MDPV [5, 9]: 0 |
| randomly methylated-γ-CD [RAME-γ-CD] |  |  |  |  |  |  |  |  |  |  |  |  |  |  |  | 0 | 0 | 0 | 0 | 0 |  |
| randomly methylated-α-CD [RAME-α-CD] |  |  |  |  |  |  |  |  |  |  |  |  |  |  |  | 0 | 0 | 0 | 0 | 0 |  |
| sulfopropylated-γ-CD [SP-γ-CD] | 0 | 0 | 0.9 | 0 | 0 | 0 | 0 | 0 | 0.8 | 0 | 0.4 | 0 | 0 | 0 | 0 |  |  |  |  |  |  |
| hydroxypropylated-γ-CD [HP-γ-CD] |  |  |  |  |  |  |  |  |  |  |  |  |  |  |  | 0 | 0 | 0 | 0 | 0 |  |
